Among the data in PubChem BioAssay AID2685 (National Center for Advancing Translational Sciences (NCATS), 2010) are cell number change and AC50 values, retold here.

Some of the results follow. Further columns of the screen follow, without active or inactive calls. Most of these compounds were active or inconclusive in the main read-out, so they are no random draw. Potencies come from curve fits of mixed quality, noted in brackets.

This experiment can be described thus: qHTS Assay for Lipid Storage Modulators in Drosophila S3 Cells.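 For cell number change: cells counted by Cell Tracker Red CMTPX staining in the red channel.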 The following applies: BODIPY lipid droplet fluorescence, 18-24 h; for cell number change: measured here: cell count max response, cells fed with added oleic acid. An excerpt:
NIH Molecular Libraries Probe Production Centers Network [MLPCN] NIH Chemical Genomics Center [NCGC] MLPCN Grant: 1 R03 MH085686-01 Assay Submitter (PI): Beller, Mathias; Max-Planck-Institut fur Biophysikalische Chemie NCGC Assay Overview: Storing lipids as a reservoir for energy or the anabolism of elementary metabolites is a common feature of probably all cells and is conserved from bacteria to humans. The universal cellular lipid storage organelle is the so-called lipid storage droplet (LD). Although ubiquitous, LDs share a simple structure composed of a hydrophobic core that harbors the storage lipids, which is shielded by a droplet-specific phospholipid monolayer to which proteins are attached. The current model of LD biogenesis involves an incorporation of the lipid core into the membrane leaflets of the endoplasmic reticulum (ER) followed by a subsequent budding-like maturation of a LD, which ultimately pinches off. Once released, LD volume can increase by localized lipogenesis or fusion of existing droplet. Storage lipids are re-mobilized enzymatically by lipase activity. Lipase regulation in the adipocyte is heavily studied and involves multiple components including catecholamine signaling, the LD-associated proteins Perilipin and comparative gene identification (CGI-58) and at least two lipases named hormone sensitive lipase (HSL) and adipocyte triglyceride lipase (ATGL). LD regulation outside of the adipocyte is poorly understood and only few components are known. However, there is an urgent need to learn more about ectopic fat depots as mislocalized storage of lipids, for example in the liver or muscle, is an eminent health problem associated with insulin resistance or the metabolic syndrome. We developed a laser-scanning cytometer assay to enable 1,536-well screening and combined the results of the small molecules screen with an RNAi database based on lipid storage.
Triacsin C (Sigma-Aldrich T-4540), an inhibitor of long-chain fatty acyl CoA synthetase that blocks synthesis of triglycerides, was used as a positive control for lipid under-storage. A total of 23 nL of compound solution of different concentrations were transferred to the assay plates using a Kalypsys pin tool equipped with a 1,536-pin array containing 10-nL slotted pins (FP1S10, 0.457-mm diameter, 50.8 mm long; V&P Scientific). One microliter of oleic acid (400 uM) was added, and the plate was lidded with stainless steel rubber gasket lined lids containing pinholes. […] Fluorescence was detected by excitation of the fluorophores with a 488-nm laser on an Acumen Explorer (TTP Lab Tech). The total intensity in channel 2 (500-530 nm) reflected lipid droplet accumulation. Cells were detected using channel 3 (575-640 nm) with 5-um width and 100-um depth filters. The ratio of the number of objects in PMT channel 2 over the number of objects in PMT channel 3 was also calculated. Percent activity was computed relative to an internal control (100% inhibited lipid droplet deposition due to the presence of 20 uM Triacsin C), which was added to 32 wells/plate.
In general terms: Quantitative high-throughput screening tests each substance at several concentrations.

Where [1] appears, read: measured here: lipid fluorescence (Fed channel) AC50, cells fed with added oleic acid.
Where [2] appears, read: measured here: cell number channel AC50, cells fed with added oleic acid.

On to `CCCCn1c(N)c(N(Cc2ccccc2OC)C(=O)COc2ccc(F)cc2Cl)c(=O)[nH]c1=O`, for which the cell number change amounted to 16.8%. Besides, the AC50 (commonly the concentration giving half of the maximal activity seen) under setting [1] is 29.1 µM [falling, single point].

Consider `CCN(CC)CCn1c2c(c(SCC(=O)Nc3nc4ccccc4s3)nc1=O)CCC2`, for which the AC50 under setting [1] is 0.00461 µM [falling, full curve, poor fit].

On to `O=C(c1ccccc1Br)N1CCN(Cc2ccc3c(c2)OCO3)CC1`, for which the cell number change is -22.8%. For the same molecule, under setting [1], the AC50 is 29.1 µM [rising, single point].

Consider `CCN(C(=O)CCCC(=O)N(CC)c1ccccc1)c1ccccc1`, for which the cell number change is 3.24%. For the same molecule, the AC50 under setting [1] was 16.4 µM [rising, single point].

For the molecule `COc1cc(OC)cc(-c2nnc(NC(=O)CCS(=O)(=O)c3ccccc3)o2)c1`, under setting [2], the half-maximal activity concentration (AC50) was 6.51 µM [rising, single point].

For `CCCC(=O)Nc1ccc(Nc2ccccc2)cc1`, the cell number change is -3.66%.

As to `O=C(CSc1nnc2ncccn12)Nc1cccc2ccccc12`, the cell number change was 2.5%.

On to `CC(=O)N1c2ccc(S(=O)(=O)N(C)c3cc(C)ccc3C)cc2CC1C` (stereo unspecified), for which the cell number change was -20.4%. For the same molecule, the AC50 under setting [1] was 0.92 µM [falling, full curve, poor fit].

Turning to `C[C@@H]1CCC(=O)N(C[C@@H](C)CC#N)CC1`, the cell number change was determined as 23.3%.

Regarding `O=C(Nc1ccc(C(=O)O)cc1)/C(=C\c1ccc2c(c1)OCO2)NC(=O)c1ccc(Br)cc1`, the cell number change is -48.7%. The AC50 under setting [2] is 1.16 µM [falling, full curve]. Under setting [1], the AC50 was 20.6 µM [falling, single point].

In the case of `O=C(C1CCCN(c2ncnc3c2nc2n3CCCCC2)C1)N1CCN(c2cccc(Cl)c2)CC1` (stereo unspecified), the cell number change was -17%.

Take `CCCCN(C(=O)CSCc1c(C)noc1C)c1c(N)n(CCCC)c(=O)[nH]c1=O`: the cell number change is -25%. The AC50 under setting [2] is 0.00461 µM [falling, full curve, poor fit]. Besides, the AC50 under setting [1] is 29.1 µM [rising, single point].

With `COc1ccc(-c2cc(C(=O)N3CCCCCC3)no2)cc1OC`, the cell number change is -6.09%.

For `COc1ccc(C[C@H]2CN3C(=NC[C@@H]3Cc3ccc(O)cc3)N2CCNC(=O)c2ccc(C)c(Br)c2)cc1`, the cell number change was -7.53%. For the same molecule, under setting [1], the AC50 was 3.26 µM [falling, single point].

Regarding `CCC(C)c1ccc(OCCn2ccnc2)cc1` (stereo unspecified), the AC50 under setting [1] was 0.58 µM [rising, single point].

Take `O=C(NCc1cc(C(F)(F)F)ccc1F)C1CCC(=O)N(C2CCCCCC2)C1` (stereo unspecified): the cell number change stood at 57.4%. Further, the AC50 under setting [2] is 18.4 µM [rising, single point].

On to `Cc1ccc(S(=O)(=O)N2CCCC2=O)c(C)c1N(C)S(C)(=O)=O`, for which the cell number change was 11.3%. Besides, the half-maximal activity concentration (AC50) under setting [1] is 0.58 µM [rising, single point].

As for `C/C(=N\NC(=O)c1cc(-c2ccncc2)nc2ccccc12)c1ccc(OC(F)F)cc1`, the cell number change was found to be 77.1%. For the same molecule, the AC50 under setting [2] is 4.61 µM [rising, full curve]. In addition, the concentration at half-maximal activity (AC50) under setting [1] was 4.11 µM [rising, partial curve, poor fit].

As for `OC(CN1CCCCC1)Cn1c2ccc(Cl)cc2c2cc(Cl)ccc21` (stereo unspecified), the cell number change was -57.3%. The AC50 under setting [2] was 29.1 µM [falling, single point]. Moreover, under setting [1], the AC50 was 20.6 µM [falling, single point].

For the molecule `CCc1ccc2[nH]c(=O)c(CN(CCCN3CCOCC3)C(=O)Nc3ccc(Cl)cc3)cc2c1`, the cell number change amounted to 19.1%. Moreover, under setting [1], the AC50 was 25.9 µM [rising, single point].

As to `CNC(=O)C1CCC(=O)N1Cc1ccc(C)cc1` (stereo unspecified), the cell number change is -35.9%. Besides, the AC50 under setting [2] was 29.1 µM [falling, single point]. The AC50 under setting [1] was 29.1 µM [falling, single point].

As for `O=C(c1ccco1)[C@@H]1[C@@H]2C(=O)N(c3ccc(F)cc3)C(=O)[C@@H]2[C@H]2C=Cc3ccccc3N21`, the cell number change was -13.6%.

Take `COCCNC(=O)NC(=O)COC(=O)c1cccn1C`: the cell number change is -33%. In addition, the AC50 under setting [2] was 0.82 µM [falling, full curve, poor fit]. The half-maximal activity concentration (AC50) under setting [1] is 1.03 µM [falling, full curve, poor fit].

With `COc1ccc(/C(N)=N/OC(=O)c2ccc3c(c2)OCO3)cc1`, the cell number change was determined as 2.88%. For the same molecule, the half-maximal activity concentration (AC50) under setting [1] is 0.411 µM [rising, full curve, poor fit].

As for `NC(=O)C1CCN(C2=C(NS(=O)(=O)c3ccc(Br)cc3)C(=O)c3ccccc3C2=O)CC1`, the cell number change was -21.8%.

Consider `O=C(C1CCCCC1)N1CC(=O)N2CCc3ccccc3C2C1` (stereo unspecified), for which the cell number change is -7.63%. The AC50 under setting [1] is 10.3 µM [rising, partial curve, poor fit].

On to `O=C(NCc1ccco1)C1CCCN(S(=O)(=O)c2ccccc2)C1` (stereo unspecified), for which the AC50 under setting [1] was 0.116 µM [falling, full curve, poor fit].

Regarding `O=C(O)CCn1c(=O)n(CCC(=O)O)c(=O)n(CCC(=O)O)c1=O`, the cell number change was -19.2%. Moreover, the AC50 under setting [1] was 18.4 µM [falling, single point].

For the molecule `Cc1nnc(-c2cccc(Br)c2)c2cn(-c3ccccc3)nc12`, the cell number change was -7.54%. Moreover, the AC50 under setting [1] is 20.6 µM [rising, partial curve, poor fit].

As for `C[C@]1(C(=O)O)Cc2oncc2C[C@@H]1C(=O)O`, the cell number change is -66.7%. Besides, the concentration at half-maximal activity (AC50) under setting [2] was 32.6 µM [falling, partial curve, poor fit].

In the case of `O=C(NC(Cc1ccccc1)c1nc2ccccc2[nH]1)c1ccc(Cl)c([N+](=O)[O-])c1` (stereo unspecified), under setting [1], the AC50 was 29.1 µM [falling, single point].
